Measured values published in paper doi:10.1101/2023.03.24.534125 (bioRxiv, 2023).

Biological target: Cbp1ΔHTH3 (Cbp1 with the third HTH domain deleted) (S. solfataricus P2)
Assay: native gel or EMSA

B1: Cren7 (S. solfataricus, SSO6901) (natural protein, UniProt Q97ZE3 1-60, looked up)
chain: MSSGKKPVKVKTPAGKEAELVPEKVWALAPKGRKGVKIGLFKDPETGKYFRHKLPDDYPI
binding: no binding (tested: ΔHTH3 at 25 nM)

Results are given in words; binding and its absence hold for the method and conditions named.
